From PMC6858068 come the findings set out here.

Results are given in words; binding and its absence hold for the method and conditions named. Some binding calls cover weakened binding; strength is not graded here. For part of these data: Tags and fused reporters may be left off the sequences shown.

For assay [1], the target named is zebrafish His-tagged ASNA1 (wildtype) (zebrafish (Danio rerio)) (UniProt Q6IQE5).
Assay [2] addresses zebrafish His-tagged ASNA1 A143V (zebrafish (Danio rerio)) (UniProt Q6IQE5).
A further assay deals with GST-tagged GET4 (UniProt Q7L5D6).

“3HA-SEC61B, translated in the PURE system (from UniProt P60468 1-96)”: the binding entry in assay [1] and in assay [2] was “binds” each time.

B1: His-tagged UBL4A (protein, UniProt P11441 1-157)
chain: MQLTVKALQGRECSLQVPEDELVSTLKQLVSEKLNVPVRQQRLLFKGKALADGKRLSDYSIGPNSKLNLVVKPLEKVLLEEGEAQRLADSPPPQVWQLISKVLARHFSAADASRVLEQLQRDYERSLSRLTLDDIERLASRFLHPEVTETMEKGFSK
Regarding B1, the binding entry with GST-tagged GET4 was “binds”.
